Measured values as given in patent publication US12016358B2, “Composition comprising taste modulation compounds, their use and foodstuff comprising them” (V. MANE FILS, priority 2015, dated 2024).
At least one structure is not confirmed: it was looked up by name or label, or the drawing left a doubt.

Test system: Complexity and Body of Wine
Test: Wine, expert tasters
Assay type: in vivo, human
Conditions: 5 ppm (each); vs Control
Method: Pantolactone (D-isomer) and mevalonolactone were added individually or as a mixture at 5 ppm each to wine.

SMILES: CC1(C)COC(=O)C1O (single isomer, unassigned) [pantolactone (D-isomer)]
- perception of complexity and body, Box red wine - Vella Burgundy California Table Wine: more complex, (some say
